One molecule from publication PMC5571359, “Screening the Medicines for Malaria Venture Pathogen Box across Multiple Pathogens Reclassifies Starting Points for Open-Source Drug Discovery” (Antimicrobial Agents and Chemotherapy, 2017) can be followed below.

pIC50: −log10 of the molar value. Where only a bound is given, the exact number is not on record here.

The subject of experiment [1] is Plasmodium falciparum 3D7 asexual blood stage. In words: microbe, parasite or virus in culture. Particulars: 3D7, read-out: Antiplasmodial IC50 (ABS).
The test system of experiment [2] is HEK293 cells. In words: HEK293 resazurin cell cytotoxicity assay. Particulars: Homo sapiens, HEK293, read-out: HEK % Inhibition 20uM/IC50 Discovery Biology (IA).

With `CN1CCC[C@@H]1CCO[C@](C)(c1ccccc1)c1ccc(Cl)cc1` [MMV637229, clemastine, reference compound], the pIC50 in experiment [1] is 5.66; in experiment [2], below 4.70.
